Results reported in paper PMC6650543.
No constants are given. Whether binding was seen depends on the method and setting. Binding seen in cells or lysates may run through a third protein. Some results given as binding are weak or reduced against the parent protein; the word gives no strength.

Protein sequences, listed by entry. Tags and fused reporters are not part of them.
UniProt O88275: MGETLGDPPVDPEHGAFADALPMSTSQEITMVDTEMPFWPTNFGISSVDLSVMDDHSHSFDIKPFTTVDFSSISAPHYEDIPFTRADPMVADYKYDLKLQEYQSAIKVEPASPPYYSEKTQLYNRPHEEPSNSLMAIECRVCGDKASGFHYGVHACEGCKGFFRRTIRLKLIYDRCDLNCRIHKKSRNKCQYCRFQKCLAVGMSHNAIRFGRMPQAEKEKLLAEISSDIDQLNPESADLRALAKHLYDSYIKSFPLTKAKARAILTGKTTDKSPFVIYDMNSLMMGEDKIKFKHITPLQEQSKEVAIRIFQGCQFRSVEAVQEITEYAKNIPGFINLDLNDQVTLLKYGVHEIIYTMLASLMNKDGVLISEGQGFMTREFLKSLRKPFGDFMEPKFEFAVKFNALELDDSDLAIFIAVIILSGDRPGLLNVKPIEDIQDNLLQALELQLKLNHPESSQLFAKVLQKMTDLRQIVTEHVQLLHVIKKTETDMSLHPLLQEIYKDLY

Target: peroxisome proliferator-activated receptor γ (rat (endogenous in primary hippocampal neurons)) (UniProt O88275)
Experiment: co-IP; lysate of primary rat hippocampal neurons in cold RIPA buffer, pre-cleared with protein A sepharose; anti-PPARγ or anti-CDK5 antibody (1:500) 12 h at 4°C, protein A sepharose beads 4 h, four washes with cold PBS, Western blot for CDK5 or PPARγ; neurons untreated or treated with Aβ1-42 (8 μM), pioglitazone (10 μM) + Aβ1-42, or GW9662 (10 μM) + pioglitazone + Aβ1-42

cyclin-dependent kinase 5 (from UniProt Q03114 1-292) (enzyme)
binding: binds
